Measurements from PubChem BioAssay AID2685 (National Center for Advancing Translational Sciences (NCATS), 2010).
The other results are listed elsewhere or left out. The main result of the screen is listed elsewhere. These columns were measured beside it and carry no call. The list favours compounds with an active or inconclusive main result. The note in brackets gives the kind of curve behind each potency; many fits are weak.

Test: qHTS Assay for Lipid Storage Modulators in Drosophila S3 Cells;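 for cell number change: cells counted by Cell Tracker Red CMTPX staining in the red channel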
Settings: BODIPY lipid droplet fluorescence, 18-24 h; for cell number change: measured here: cell count max response, cells fed with added oleic acid
Method in brief: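 Drosophila S3 cells got compounds at several concentrations plus oleic acid (400 uM solution). Laser-scanning cytometry with 488 nm excitation read lipid droplets at 500-530 nm and cells at 575-640 nm. Percent activity was relative to 20 uM Triacsin C.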

[1] = measured here: lipid fluorescence (Fed channel) AC50, cells fed with added oleic acid
[2] = measured here: cell number channel AC50, cells fed with added oleic acid

## O=C(Nc1ccc(F)cc1Cl)C1=COCCO1
  cell number change: 1.61%

## CSc1ccc(Cn2nnc(C(=O)Nc3ccc(C)c(C)c3)c2N)cc1
  cell number change: 17.5%
[1]
  AC50: 0.00411 µM [rising, full curve, poor fit]

## CCc1nnc(NC(=O)CCNC(=O)c2ccccc2Cl)s1
  cell number change: -39.3%

## On1nnc2cc(C(F)(F)F)ccc21
[2]
  AC50: 5.17 µM [falling, single point]

## CNS(=O)(=O)c1ccc(NC(=S)Nc2ccc3c(c2)OCO3)cc1
  cell number change: 22.2%

## Clc1ccc(-c2nc(C3CCCCC3)no2)cc1
  cell number change: -54.2%
[2]
  AC50: 29.1 µM [falling, single point]
[1]
  AC50: 29.1 µM [falling, single point]

## Cc1c([N+](=O)[O-])c(C(=O)Sc2ccc(Br)cc2)nn1C
  cell number change: -3.7%

## COCCCN1C(=O)C(=O)/C(=C(/O)c2ccc(OC)cc2)C1c1cccc(OC)c1 (stereo unspecified)
  cell number change: -141%
[2]
  AC50: 4.61 µM [falling, partial curve]

## O=C(NCc1ccc2c(c1)OCO2)C(=O)Nc1ccccc1
  cell number change: 27.1%

## CC1Cc2ccccc2N1CC(=O)NC(=O)NCc1ccccc1 (stereo unspecified)
  cell number change: -11.6%
[2]
  AC50: 0.00461 µM [falling, full curve, poor fit]

## CCOC(=O)C(NC(=O)Cc1ccccc1)(Nc1cc(C)on1)C(F)(F)F (stereo unspecified)
  cell number change: -18.4%
[1]
  AC50: 11.6 µM [falling, partial curve]

## CCCn1c(SCC(=O)N2CCN(c3ccc(OC)cc3)CC2)nc2c1c(=O)n(C)c(=O)n2C
  cell number change: -15.6%

## COc1ccc(CCNC(=O)CC(Cc2ccccc2)C(=O)O)cc1OC (stereo unspecified)
  cell number change: 60.4%
[2]
  AC50: 29.1 µM [rising, single point]

## COc1ccc(C=O)cc1CN1CCCN(Cc2ccccc2F)S1(=O)=O
  cell number change: 54.9%
[2]
  AC50: 11.6 µM [rising, partial curve]
[1]
  AC50: 6.51 µM [rising, single point]

## Cc1nn(Cc2ccc(Cl)cc2Cl)c(C)c1NC(=O)CCl
  cell number change: -32.9%
[2]
  AC50: 11.6 µM [falling, partial curve]
[1]
  AC50: 16.4 µM [falling, partial curve]

## CCOC(=O)/C(C#N)=C1/SC(CC)C(=O)N1c1ccc(Br)cc1 (stereo unspecified)
  cell number change: 1.84%
[2]
  AC50: 1.46 µM [rising, partial curve, poor fit]

## COc1ccc(N(C(=O)Cc2cccs2)C2C=CS(=O)(=O)C2)cc1 (stereo unspecified)
  cell number change: 18.8%
[1]
  AC50: 0.411 µM [falling, single point]

## Cc1ccc(S(=O)(=O)N2CC(O)C2)cc1
  cell number change: 24%
[1]
  AC50: 0.411 µM [falling, single point]

## Cc1cc(C(=O)OCC(=O)Nc2cccc(S(=O)(=O)N(C)C)c2)c(C)o1
  cell number change: 28.7%
[1]
  AC50: 29.1 µM [rising, single point]

## CCOc1ccc(N(CC(=O)NCC2CCCO2)C(=O)CCC(=O)Nc2nccs2)cc1 (stereo unspecified)
  cell number change: 13.5%
[1]
  AC50: 9.2 µM [rising, single point]

## CCOc1ccc(C(=O)NCc2ccc3c(c2)OCO3)cc1
  cell number change: 10.4%
[1]
  AC50: 3.66 µM [rising, full curve]

## O=C(CN(c1ccccn1)S(=O)(=O)c1ccc(F)cc1)Nc1ccc(F)cc1F
  cell number change: -14%

## Cc1ccc(C)c(S(=O)(=O)N2CCN(CC(=O)NC(=O)NCc3ccccc3)CC2)c1
  cell number change: 29.3%
[1]
  AC50: 0.184 µM [rising, full curve, poor fit]

## Cc1ccc(S(=O)(=O)Nc2cc(C)nn2-c2ccccc2)cc1
  cell number change: -0.26%
[1]
  AC50: 0.164 µM [rising, full curve, poor fit]

## COc1cc(NC(=O)COc2cc(O)c3c(c2)OC(C)(C)CC3=O)cc(OC)c1
  cell number change: 1.29%
[1]
  AC50: 29.1 µM [falling, single point]

## CC(=O)c1c(C)[nH]c(C(=O)CN2C(=O)NC(C)(C)C2=O)c1C
  cell number change: -11.3%
[1]
  AC50: 0.00461 µM [rising, full curve, poor fit]

## Cc1cc(C(=O)Nc2ccccc2N2CCCCC2)no1
  cell number change: -3.03%
[1]
  AC50: 6.51 µM [falling, single point]

## CCOc1ccc(NC(=O)CN(C)C(=O)c2cccnc2Sc2ccc(Cl)cc2)cc1OCC
  cell number change: -11.1%

## Cc1ccc(S(=O)(=O)NCC(=O)Nc2ccc3c(c2)OCCO3)cc1
  cell number change: 19.1%
[1]
  AC50: 29.1 µM [rising, partial curve, poor fit]

## Cc1cc(CNC(=O)C2CCC(=O)N(CCc3cccc(F)c3)C2)on1 (stereo unspecified)
  cell number change: -11.9%

## CCOC(=O)[C@@H]1[C@H]2COc3ccc(Br)cc3[C@@H]2N2C(=O)N(c3ccccc3)C(=O)[C@]12C
  cell number change: 3.29%
[1]
  AC50: 29.1 µM [rising, single point]

## COc1ccc(CNC(=O)CCc2nnc3ccc(N4CCC5(CC4)OCCO5)nn23)cc1
  cell number change: -18.4%
[1]
  AC50: 6.51 µM [falling, single point]

## CC1=C(c2ccc(Cl)cc2)[N+](=O)C(C)(C)N1[O-]
  cell number change: -15.1%
[1]
  AC50: 0.00411 µM [falling, full curve, poor fit]

## CC1CCN(C(=O)c2cc(-c3ccccc3O)on2)CC1
  cell number change: -7.41%
[1]
  AC50: 0.00461 µM [falling, full curve, poor fit]

## C=CCOc1ccccc1/C=N/n1nnnc1N
  cell number change: -3.7%
[1]
  AC50: 29.1 µM [falling, single point]

## CCN(CC)C(=O)C1CCCN(Cc2sccc2C)C1 (stereo unspecified)
  cell number change: 9.61%

## CCN(CC)S(=O)(=O)c1ccc(C(=O)Nc2cc(C)cc(C)c2)cc1
  cell number change: 0.929%

## CCCN(C(=O)CSc1nnc(-c2ccoc2C)n1N)C1CCS(=O)(=O)C1 (stereo unspecified)
  cell number change: -72.6%
[2]
  AC50: 4.11 µM [falling, full curve]
[1]
  AC50: 4.11 µM [falling, full curve]

## CCOc1ccc(-c2nc(N)nc(C)c2-c2ccc(OC)c(OC)c2)c(O)c1
  cell number change: 2.01%
[1]
  AC50: 16.4 µM [rising, single point]

## Cc1ccc(NC(=O)CCNS(=O)(=O)c2ccc3c(c2)oc(=O)n3C)cc1C
  cell number change: 31.6%
[2]
  AC50: 14.6 µM [rising, single point]

## COc1ccc(/C=C2\SC(=O)N(CCNC(=O)C3CCN(S(=O)(=O)c4cccs4)CC3)C2=O)cc1
  cell number change: -5.48%
[1]
  AC50: 23.1 µM [falling, single point]

## Cc1cccc(NC(=S)NCC(C)CSc2ccc(Cl)cc2)c1 (stereo unspecified)
[2]
  AC50: 0.103 µM [falling, partial curve, poor fit]
[1]
  AC50: 6.51 µM [falling, partial curve]
